# Source: PMC10015339
# Construct, isoform or probe ends are uncertain for at least one entry. For part of these data: A negative result means that nothing was seen under these conditions.
# Key:
# GST = experiment: EMSA; settings: GST-only control; LightShift chemiluminescent EMSA kit; 6% polyacrylamide gel; pH and temperature not given (refers to ref. 37); recombinant protein; label: biotin
# GST-SlMYB72 [1] = experiment: EMSA; settings: LightShift chemiluminescent EMSA kit; 6% polyacrylamide gel; pH and temperature not given (refers to ref. 37); recombinant protein; protein details: GST (N-terminal, pGEX-4T-1); label: biotin
# GST-SlMYB72 [2] = experiment: competition with a labelled probe; settings: unlabeled competitor abolished the shift of biotin-labeled N1; LightShift chemiluminescent EMSA kit; 6% polyacrylamide gel; pH and temperature not given (refers to ref. 37); recombinant protein; protein details: GST (N-terminal, pGEX-4T-1)
Sequence,binding result (GST),binding result (GST-SlMYB72 [1]),binding result (GST-SlMYB72 [2])
CATGGATAAAACTCGACCAACAAAATCTTGAGCTTA (double strand) [SlATG7 probe (AC-rich motif)],no binding,binds,
"CATGGATAAAACTCGACCAACAAAATCTTGAGCTTA (double strand) [SlATG7 probe, unlabeled competitor]",,,binds
